Measured values taken from article PMC6208443 (Nature Communications, 2018).

Tests used:
[1] = system: CMT3; assay: Peptide affinity purification and mass spectrometry, CMT3; format: binding, Arabidopsis thaliana; conditions: pull-down of nuclear extracts of Arabidopsis flowers with 2 μg biotinylated peptide, 3 h, 4 °C; LC-MS/MS
Description: (§1) To extract the nuclear proteins for peptide affinity purification, 1 g of wild-type Arabidopsis flowers was harvested and ground in liquid nitrogen. […] The filtrates were centrifuged at 2000 g for 15 min at 4 °C to precipitate the nuclei. Nuclear pellets were washed two times with 1 ml of Honda buffer and then were resuspended in 600 μl of Nuclei Lysis Buffer (50 mM Tris-HCl pH 8.0, 150 mM NaCl, 1% NP40, 0.5 mM DTT, 1 mM PMSF, Roche protease inhibitor cocktail). After sonication, nuclei extracts were centrifuged at 20,000 g for 10 min at 4 °C. The supernatant was incubated with 2 μg of biotinylated histone peptides and Streptavidin Magnetic Beads (Thermo Scientific, 88816) for 3 h with rotation at 4 °C. […] After incubation, beads were washed three times with wash buffer 1 (320 mM NaCl, 50 mM Tris-HCl pH 8.0, 0.5% NP40), and three times with wash buffer 2 (150 mM NaCl, 50 mM Tris-HCl pH 8.0).
For LC-MS/MS analysis, IP beads with captured proteins were lysed in 12 mM sodium deoxycholate (SDC)-sodium lauroyl sarcosinate (SLS): 100 mM Tris-HCl (pH 8.5), 12 mM SDC, and 12 mM SLS. Proteins were reduced and alkylated with 10 mM tris-(2-carboxyethyl) phosphine and 40 mM chloroacetamide at 95 °C for 5 min. The supernatant containing reduced and alkylated proteins was transferred into a new Eppendorf tube and diluted fivefold with 50 mM triethylammonium hydrogen carbonate buffer and digested with 500 ng trypsin (Sigma) overnight. The SDC and SLS were removed by adding 100% acetyl acetate in a ratio 1:1 (vol/vol) sample to acetyl acetate volume ratio. Samples were acidified with 10% trifluoroacetic acid to pH ~3, and desalted by a custom-made stage tip with a styrene divinyl benzene (SDB-XC) membrane (3 M). The dried peptides were resuspended in 30 μL of 0.3% formic acid (FA) with 3% acetonitrile (ACN), quantified by BCA assay (Thermo Fisher Scientific), and injected into an Easy-nLC 1000 (Thermo Fisher Scientific). Peptides were separated on a 45 cm in-house packed column (360 μm OD × 75 μm ID) containing C18 resin (2.2 μm, 100 Å, Michrom Bioresources) with a 30 cm column heater (Analytical Sales and Services) set at 60 °C. The mobile phase buffer consisted of 0.1% FA in ultra-pure water (buffer A) with an eluting buffer of 0.1% FA in 80% ACN (buffer B) run over a linear 65 min gradient of 5%-30% buffer B at a flow rate of 250 nL/min. The Easy-nLC 1000 was coupled online with a Velos Pro LTQ-Orbitrap mass spectrometer (Thermo Fisher Scientific). The mass spectrometer was operated in the data-dependent mode in which a full MS scan (from m/z 350–1500 with the resolution of 30,000 at 400 m/z) was followed by the 10 most intense ions being subjected to collision-induced dissociation (CID) fragmentation. CID fragmentation was performed and acquired in the linear ion trap (normalized collision energy 30%, AGC 3e4, max injection time 100 ms, isolation window 3 m/z, and dynamic exclusion 60 s). The raw files were searched directly against Arabidopsis thaliana database (TAIR10) with no redundant entries using SEQUEST HT algorithm in Proteome Discoverer version 2.2 (Thermo Fisher Scientific). Peptide precursor mass tolerance was set at 15 ppm, and MS/MS tolerance was set to 0.6 Da. Search criteria included a variable modifications of oxidation ( + 15.995 Da) on methionine residues, and acetylation ( + 42.011 Da) at N-terminus of protein, and a static carbamidomethylation of cysteines ( + 57.021 Da). Search was performed with full tryptic digestion and allowed a maximum of two missed cleavages on the peptides analyzed from the sequence database. Relaxed and strict false discovery rates were set for 0.05 and 0.01, respectively.

[2] = system: AGDP1; assay: Peptide affinity purification and mass spectrometry, AGDP1; format: binding, Arabidopsis thaliana; conditions: pull-down of nuclear extracts of Arabidopsis flowers with 2 μg biotinylated peptide, 3 h, 4 °C; LC-MS/MS
Description: as §1
For LC-MS/MS analysis, IP beads with captured proteins were lysed in 12 mM sodium deoxycholate (SDC)-sodium lauroyl sarcosinate (SLS): 100 mM Tris-HCl (pH 8.5), 12 mM SDC, and 12 mM SLS. […] The dried peptides were resuspended in 30 μL of 0.3% formic acid (FA) with 3% acetonitrile (ACN), quantified by BCA assay (Thermo Fisher Scientific), and injected into an Easy-nLC 1000 (Thermo Fisher Scientific). […]

Row | Substance | Coverage (%) [1] | Unique Peptides [1] | Coverage (%) [2]
1 | H3(1-21): synthesized biotinylated H3(1-21) peptide, EMD Millipore | 0% | 0 | 
2 | H3(1-21)K9me1: synthesized biotinylated H3(1-21)K9me1 peptide, EMD Millipore | 21.93% | 14 | 11.41%
3 | H3(1-21)K9me2: synthesized biotinylated H3(1-21)K9me2 peptide, EMD Millipore | 32.54% | 23 | 
4 | H3(1-21)K9me3: synthesized biotinylated H3(1-21)K9me3 peptide, EMD Millipore | 23.48% | 17 | 
